Experimental data published in article PMC10115824.
No constants are given. Whether binding was seen depends on the method and setting. In cells and extracts the contact can be indirect. A yes stands for co-enrichment or nearness to the bait. Other partners may have been found.

Amino acid sequences for entries named in this document (tags omitted). Residues count along the entry.
UniProt P13596, residues 20-858: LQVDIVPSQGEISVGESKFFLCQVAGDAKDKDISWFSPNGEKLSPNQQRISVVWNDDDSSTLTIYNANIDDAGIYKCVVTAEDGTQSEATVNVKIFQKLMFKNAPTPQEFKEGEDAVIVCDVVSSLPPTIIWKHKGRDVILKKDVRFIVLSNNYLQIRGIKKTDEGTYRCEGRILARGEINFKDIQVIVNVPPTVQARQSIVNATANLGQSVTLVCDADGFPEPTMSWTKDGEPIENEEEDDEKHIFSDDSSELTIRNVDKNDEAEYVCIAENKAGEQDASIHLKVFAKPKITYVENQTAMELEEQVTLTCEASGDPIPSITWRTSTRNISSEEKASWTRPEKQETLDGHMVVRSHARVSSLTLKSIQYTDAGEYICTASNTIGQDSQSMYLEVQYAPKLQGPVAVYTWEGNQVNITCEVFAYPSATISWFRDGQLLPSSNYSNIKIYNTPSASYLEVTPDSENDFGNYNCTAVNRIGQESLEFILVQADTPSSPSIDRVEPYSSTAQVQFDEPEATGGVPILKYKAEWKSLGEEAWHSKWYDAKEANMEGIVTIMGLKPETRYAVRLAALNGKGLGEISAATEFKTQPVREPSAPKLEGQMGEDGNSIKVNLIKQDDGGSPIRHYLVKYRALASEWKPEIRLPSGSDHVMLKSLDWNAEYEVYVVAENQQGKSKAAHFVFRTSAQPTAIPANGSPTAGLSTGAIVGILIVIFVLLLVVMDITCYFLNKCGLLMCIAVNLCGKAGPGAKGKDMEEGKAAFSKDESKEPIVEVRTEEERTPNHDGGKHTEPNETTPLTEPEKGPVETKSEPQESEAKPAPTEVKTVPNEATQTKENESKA

Target: T1, Tissue kallikrein-related peptidase 8 (KLK8) in rat hippocampus (not stated (rat hippocampus; species of the transgene not told)) (UniProt O88780)
T1 sequence: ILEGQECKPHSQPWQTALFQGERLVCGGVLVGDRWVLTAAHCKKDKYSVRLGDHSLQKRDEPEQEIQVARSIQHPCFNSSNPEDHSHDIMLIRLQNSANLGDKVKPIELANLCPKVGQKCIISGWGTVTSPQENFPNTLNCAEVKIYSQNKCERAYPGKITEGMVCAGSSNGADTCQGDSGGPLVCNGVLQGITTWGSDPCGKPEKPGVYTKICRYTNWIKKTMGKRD
Assay: affinity purification with mass spectrometry; proteins from hippocampal tissue of KLK8 transgenic rats immunoprecipitated with antibodies against KLK8; SDS-PAGE, trypsin digestion, UPLC-MS/MS

binding: binds
Substance: Neural cell adhesion molecule 1 (NCAM1) in rat hippocampus (from UniProt P13596 20-858)
